# Literature values as cited in patent US20040127446A1 (priority 1992, published 2004).
# At least one compound was matched to its structure with a doubt left.
# Test system: HBV
# Settings: cited from earlier work
smiles,measurement,setting,value
Nc1ccn([C@@H]2CS[C@H](CO)O2)c(=O)n1 [Lamivudine],patients with improvements in liver histology,chronic administration,over 50%
same,reduction in hepatitis B DNA,"patients, 100 mg per day",98%
